From the supplement of paper PMC10470496
Structures can show the parent of a compound that is named as a salt. This is one part of the list. Single values are uncertain, as repeats are few or missing.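 Three clinical Candida auris isolates (clades III, IV and I) from the CDC resistance isolate bank were grown in RPMI-1640 at 35°C. Growth was background-corrected OD600 relative to same-plate vehicle-only wells. Hits required over 50% inhibition in at least two strains and a plate-corrected B-score above 0.1.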

Tests used:
Experiment in all cases: growth relative to vehicle control (OD600 ratio) (fraction); higher = less inhibition
Conditions in all cases: 24 h
[1] = system: C. auris AR-384
[2] = system: C. auris AR-386
[3] = system: C. auris AR-387

In the case of `COc1nc(N)nc2c1ncn2[C@@H]1O[C@H](CO)[C@@H](O)[C@@H]1O` [Nelarabine], the growth ([1]; 1 µM) is reported as 0.77, the growth ([1]; 10 µM) is reported as 1.16 and the growth ([2]; 1 µM) is reported as 1.04. The growth ([2]; 10 µM) was 0.69, the growth ([3]; 1 µM) was 0.75 and the growth ([3]; 10 µM) was 0.77.

`COc1ccc([C@H]2CNC(=O)C2)cc1OC1CCCC1` [S- (+)-Rolipram] gave a growth ([1]; 1 µM) of 0.79, a growth ([1]; 10 µM) of 0.67 and a growth ([2]; 1 µM) of 0.85. It also gave a growth ([2]; 10 µM) of 0.76, a growth ([3]; 1 µM) of 0.82 and a growth ([3]; 10 µM) of 0.61.

Compound `CC(C)COc1ccc(CNC(=O)N(Cc2ccc(F)cc2)C2CCN(C)CC2)cc1` [Pimavanserin] has a growth ([1]; 1 µM) of 1.2, a growth ([1]; 10 µM) of 1.16 and a growth ([2]; 1 µM) of 0.87. For the same compound, the growth ([2]; 10 µM) was 0.94, the growth ([3]; 1 µM) was 0.58 and the growth ([3]; 10 µM) was 0.98.

With `C[C@]12CC[C@@H]3c4ccc(O)cc4CC[C@H]3[C@@H]1CC[C@@H]2O` [Estradiol] the growth ([1]; 1 µM) was 0.89, the growth ([1]; 10 µM) was 1.02 and the growth ([2]; 1 µM) was 0.7. It also gave a growth ([2]; 10 µM) of 0.79, a growth ([3]; 1 µM) of 0.69 and a growth ([3]; 10 µM) of 0.83.

With `COC(=O)N/N=C/c1c[n+]([O-])c2ccccc2[n+]1[O-]` [Carbadox] the growth ([1]; 1 µM) was 1.07, the growth ([1]; 10 µM) was 0.96 and the growth ([2]; 1 µM) was 0.79. It also gave a growth ([2]; 10 µM) of 0.94, a growth ([3]; 1 µM) of 0.92 and a growth ([3]; 10 µM) of 0.86.

With `CC1(C)[C@@H](O)CC[C@]2(C)[C@H]3C(=O)C=C4[C@@H]5C[C@@](C)(C(=O)O)CC[C@]5(C)CC[C@@]4(C)[C@]3(C)CC[C@@H]12` [Enoxolone] the growth ([1]; 1 µM) was 0.81, the growth ([1]; 10 µM) was 0.95 and the growth ([2]; 1 µM) was 1.05. For the same compound, the growth ([2]; 10 µM) was 1, the growth ([3]; 1 µM) was 0.99 and the growth ([3]; 10 µM) was 0.93.

`COc1ccc(-c2nc3cc(C4=NNC(=O)CC4C)ccc3[nH]2)cc1` (centres undefined) [Pimobendan] was tested, and the growth ([1]; 1 µM) was 1.21, the growth ([1]; 10 µM) was 1.28 and the growth ([2]; 1 µM) was 1.3. The growth ([2]; 10 µM) was 0.78, the growth ([3]; 1 µM) was 0.87 and the growth ([3]; 10 µM) was 0.83.

Compound `C[C@H]1c2cccc(O)c2C(=O)C2=C(O)[C@]3(O)C(=O)C(C(N)=O)=C(O)[C@@H](N(C)C)[C@@H]3[C@@H](O)[C@@H]21` [Doxycycline HCl] has a growth ([1]; 1 µM) of 0.88, a growth ([1]; 10 µM) of 0.9 and a growth ([2]; 1 µM) of 0.96. For the same compound, the growth ([2]; 10 µM) was 0.93, the growth ([3]; 1 µM) was 1.03 and the growth ([3]; 10 µM) was 1.

In the case of `CN1CCN2c3ncccc3Cc3ccccc3C2C1` (centres undefined) [Mirtazapine], the growth ([1]; 1 µM) is reported as 0.86, the growth ([1]; 10 µM) is reported as 0.93 and the growth ([2]; 1 µM) is reported as 0.89. For the same compound, the growth ([2]; 10 µM) was 0.69, the growth ([3]; 1 µM) was 0.99 and the growth ([3]; 10 µM) was 0.62.

`CO[C@@H]1[C@H](OC(=O)/C=C/C=C/C=C/C=C/C(=O)O)CC[C@]2(CO2)[C@H]1[C@@]1(C)O[C@@H]1CC=C(C)C` [Fumagillin] showed a growth ([1]; 1 µM) of 0.83, a growth ([1]; 10 µM) of 0.55 and a growth ([2]; 1 µM) of 0.65. It also gave a growth ([2]; 10 µM) of 0.65, a growth ([3]; 1 µM) of 0.85 and a growth ([3]; 10 µM) of 0.77.

With `O=C([O-])c1ccccc1.[Na+]` [Sodium benzoate] the growth ([1]; 1 µM) was 0.69, the growth ([1]; 10 µM) was 0.59 and the growth ([2]; 1 µM) was 0.9. For the same compound, the growth ([2]; 10 µM) was 0.69, the growth ([3]; 1 µM) was 1 and the growth ([3]; 10 µM) was 0.81.

`Cc1cc(/C=C/C#N)cc(C)c1Nc1ccnc(Nc2ccc(C#N)cc2)n1` [Rilpivirine] showed a growth ([1]; 1 µM) of 1.15, a growth ([1]; 10 µM) of 0.92 and a growth ([2]; 1 µM) of 1.03. For the same compound, the growth ([2]; 10 µM) was 0.98, the growth ([3]; 1 µM) was 1.24 and the growth ([3]; 10 µM) was 1.07.

Work on `Cc1ccc2c(Cl)cc(Cl)c(O)c2n1` [Chlorquinaldol] yielded a growth ([1]; 1 µM) of 0.73, a growth ([1]; 10 µM) of 0.18 and a growth ([2]; 1 µM) of 0.4. It also gave a growth ([2]; 10 µM) of 0.08, a growth ([3]; 1 µM) of 0.57 and a growth ([3]; 10 µM) of 0.06.

`N=C(N)NC(=O)c1nc(Cl)c(N)nc1N` [Amiloride HCl] was tested, and the growth ([1]; 1 µM) was 0.85, the growth ([1]; 10 µM) was 0.72 and the growth ([2]; 1 µM) was 0.55. It also gave a growth ([2]; 10 µM) of 0.54, a growth ([3]; 1 µM) of 0.63 and a growth ([3]; 10 µM) of 1.21.

For `COc1ccccc1OCC(O)COC(N)=O` (centres undefined) [Methocarbamol], the growth ([1]; 1 µM) was 1, the growth ([1]; 10 µM) was 1.24 and the growth ([2]; 1 µM) was 1.02. The growth ([2]; 10 µM) was 0.9, the growth ([3]; 1 µM) was 0.77 and the growth ([3]; 10 µM) was 0.89.

With `CCCNC(C)C(=O)Nc1ccccc1C` (centres undefined) [Prilocaine] the growth ([1]; 1 µM) was 0.76, the growth ([1]; 10 µM) was 1.28 and the growth ([2]; 1 µM) was 1.01. It also gave a growth ([2]; 10 µM) of 0.56, a growth ([3]; 1 µM) of 0.7 and a growth ([3]; 10 µM) of 0.59.

`Nc1nc(=O)c2nc(CNc3ccc(C(=O)N[C@@H](CCC(=O)O)C(=O)O)cc3)cnc2[nH]1` [Folic acid] showed a growth ([1]; 1 µM) of 1.16, a growth ([1]; 10 µM) of 1.2 and a growth ([2]; 1 µM) of 1.17. The growth ([2]; 10 µM) was 1.04, the growth ([3]; 1 µM) was 1.02 and the growth ([3]; 10 µM) was 0.89.

With `Cn1ncc(Cl)c1-c1cc(C(=O)N[C@H](CN)Cc2ccc(F)c(F)c2)oc1Cl` the growth ([1]; 1 µM) was 0.8, the growth ([1]; 10 µM) was 0.76 and the growth ([2]; 1 µM) was 1.09. For the same compound, the growth ([2]; 10 µM) was 0.91, the growth ([3]; 1 µM) was 0.64 and the growth ([3]; 10 µM) was 0.9.

`Clc1ccc2c(c1)C(N1CCNCC1)=Nc1ccccc1O2` [Amoxapine] gave a growth ([1]; 1 µM) of 0.93, a growth ([1]; 10 µM) of 0.89 and a growth ([2]; 1 µM) of 1.13. The growth ([2]; 10 µM) was 0.75, the growth ([3]; 1 µM) was 0.76 and the growth ([3]; 10 µM) was 1.12.

For `CC[C@H](C)C(=O)O[C@H]1CCC=C2C=C[C@H](C)[C@H](CC[C@@H]3C[C@@H](O)CC(=O)O3)[C@H]21` [Mevastatin], the growth ([1]; 1 µM) was 1.1, the growth ([1]; 10 µM) was 1 and the growth ([2]; 1 µM) was 0.7. The growth ([2]; 10 µM) was 0.76, the growth ([3]; 1 µM) was 0.86 and the growth ([3]; 10 µM) was 0.92.

For `C[C@@H]1O[C@@H]1P(=O)(O)O` [Fosfomycin calcium], the growth ([1]; 1 µM) was 0.66, the growth ([1]; 10 µM) was 0.85 and the growth ([2]; 1 µM) was 0.87. The growth ([2]; 10 µM) was 0.95, the growth ([3]; 1 µM) was 1.06 and the growth ([3]; 10 µM) was 0.6.

For `OC(c1ccccc1)(c1ccccc1)C12CC[N+](CCOCc3ccccc3)(CC1)CC2` [Umeclidinium bromide], the growth ([1]; 1 µM) was 1.23, the growth ([1]; 10 µM) was 0.92 and the growth ([2]; 1 µM) was 0.87. It also gave a growth ([2]; 10 µM) of 0.96, a growth ([3]; 1 µM) of 0.65 and a growth ([3]; 10 µM) of 0.98.

With `C[C@H]1C[C@@H]2[C@H]([C@@H](O)C[C@@]3(C)[C@H]2CC[C@]3(O)C(=O)CO)[C@@]2(C)C=CC(=O)C=C12` [Methylprednisolone] the growth ([1]; 1 µM) was 0.95, the growth ([1]; 10 µM) was 1.35 and the growth ([2]; 1 µM) was 1.26. For the same compound, the growth ([2]; 10 µM) was 1.26, the growth ([3]; 1 µM) was 1.01 and the growth ([3]; 10 µM) was 0.87.

For `Clc1ccccc1C(c1ccccc1)(c1ccccc1)n1ccnc1` [Clotrimazole], the growth ([1]; 1 µM) was 0.47, the growth ([1]; 10 µM) was 0.7 and the growth ([2]; 1 µM) was 1.12. It also gave a growth ([2]; 10 µM) of 0.59, a growth ([3]; 1 µM) of 0.06 and a growth ([3]; 10 µM) of 0.05.

`Cc1ncc(CO)c(CO)c1O` [Pyridoxine HCl] gave a growth ([1]; 1 µM) of 1.04, a growth ([1]; 10 µM) of 0.74 and a growth ([2]; 1 µM) of 1.28. For the same compound, the growth ([2]; 10 µM) was 0.66, the growth ([3]; 1 µM) was 0.68 and the growth ([3]; 10 µM) was 0.57.

With `Nc1nc2[nH]cc(CCc3ccc(C(=O)N[C@@H](CCC(=O)O)C(=O)O)cc3)c2c(=O)[nH]1` [Pemetrexed Disodium Hydrate] the growth ([1]; 1 µM) was 0.65, the growth ([1]; 10 µM) was 0.47 and the growth ([2]; 1 µM) was 0.66. The growth ([2]; 10 µM) was 0.78, the growth ([3]; 1 µM) was 0.7 and the growth ([3]; 10 µM) was 0.86.

`CC(C)N(CCCCOCC(=O)NS(C)(=O)=O)c1cnc(-c2ccccc2)c(-c2ccccc2)n1` [Selexipag] was tested, and the growth ([1]; 1 µM) was 1.37, the growth ([1]; 10 µM) was 0.67 and the growth ([2]; 1 µM) was 0.94. For the same compound, the growth ([2]; 10 µM) was 1.01, the growth ([3]; 1 µM) was 1.23 and the growth ([3]; 10 µM) was 1.02.

Compound `NCCc1c[nH]cn1` [Histamine Phosphate] has a growth ([1]; 1 µM) of 0.6, a growth ([1]; 10 µM) of 0.57 and a growth ([2]; 1 µM) of 0.91. The growth ([2]; 10 µM) was 0.68, the growth ([3]; 1 µM) was 1.08 and the growth ([3]; 10 µM) was 0.72.

`COc1ccc(CN(CCN(C)C)c2ccccn2)cc1` [Pyrilamine Maleate] showed a growth ([1]; 1 µM) of 1.05, a growth ([1]; 10 µM) of 0.81 and a growth ([2]; 1 µM) of 0.86. The growth ([2]; 10 µM) was 0.88, the growth ([3]; 1 µM) was 0.96 and the growth ([3]; 10 µM) was 1.21.
